Reference: patent US7070811B2, “Directly compressible formulations of azithromycin” (Pfizer Inc., priority 2001, dated 2006)
Some of these results come from one statement about several compounds together.

Test: Tablet hardness, Schleuniger hardness tablet tester
Type: physicochemical
Conditions: low drug loading, compaction simulator

Structure (SMILES)	tablet hardness
CC[C@H]1OC(=O)[C@H](C)[C@@H](O[C@H]2C[C@@](C)(OC)[C@@H](O)[C@H](C)O2)[C@H](C)[C@@H](O[C@@H]2O[C@H](C)C[C@H](N(C)C)[C@H]2O)[C@](C)(O)C[C@@H](C)CN(C)[C@H](C)[C@@H](O)[C@]1(C)O [Lot 8, azithromycin]	greater than 12 kP
CC[C@H]1OC(=O)[C@H](C)[C@@H](O[C@H]2C[C@@](C)(OC)[C@@H](O)[C@H](C)O2)[C@H](C)[C@@H](O[C@@H]2O[C@H](C)C[C@H](N(C)C)[C@H]2O)[C@](C)(O)C[C@@H](C)CN(C)[C@H](C)[C@@H](O)[C@]1(C)O [Lot 11, azithromycin]	greater than 12 kP
